Values quoted from earlier work in patent US9387169B2, “Rapamycin powders for pulmonary delivery” (Civitas Therapeutics, Inc., priority 2014, dated 2016).

Conditions: crystalline powder

In the case of `CO[C@H]1C[C@@H]2CC[C@@H](C)[C@@](O)(O2)C(=O)C(=O)N2CCCC[C@H]2C(=O)O[C@H]([C@H](C)C[C@@H]2CC[C@@H](O)[C@H](OC)C2)CC(=O)[C@H](C)/C=C(\C)[C@@H](O)[C@@H](OC)C(=O)[C@H](C)C[C@H](C)/C=C/C=C/C=C/1C` [Rapamycin], the solubility in water is listed as “insoluble in water”.
